Experimental data published in PubChem BioAssay AID248 (DTP/NCI, 2004).
The list is a part of this screen's results and no random one: it is rich in T/C values a quarter to a half above the control, in often repeated tests (any T/C) and in doses without a T/C. Further doses and runs are listed elsewhere. T/C gives the treated animals as a percentage of the vehicle group. Some entries give survivors of the animals treated and no T/C: the source holds a T/C of zero for them, seemingly a mark for toxic or unscored doses. Some survivor counts are full or nearly so, which does not show that the dose was tolerated: the source hardly ever lists a survival T/C far under the control, and the zero likely stands for such cases as well. Survivors were counted at the toxicity check, usually on the fifth day, unless a day is given; later deaths do not show. Schedules are NCI's codes, taken here to give the interval after Q, in days (D) or hours (H), and the number of doses after X. Some schedule codes hold Z or #, which are not explained here. Some doses were run more than once; their values stand side by side, smallest first. For survival time, this PubChem deposit counts one and a half times the control or more as active, and values a quarter to a half above the control carry no call in these data; other NCI protocols may use other cut-offs. Some T/C values carry the count of animals alive at the toxicity check (mostly the fifth day); without a count, all were alive then.

Tested on: L1210 leukemia ip in BDF1 mice, survival T/C
Test: NCI In Vivo Anticancer Drug Screen. Data for tumor model L1210 Leukemia (intraperitoneal) in B6D2F1 (BDF1) mice
Conditions: T/C endpoint: mean survival time, higher T/C = longer survival

For `COC12C(COC(N)=O)C3=C(C(=O)C(C)=C(N)C3=O)N1CC1C2N1C` (configuration not stated), the T/C (dose: 2.0 mg/kg/injection, schedule: Q01DX009 (ip), vehicle: saline) was 139 % of control, the T/C (dose: 3.0 mg/kg/injection, schedule: Q01DX009 (ip), vehicle: saline) was 128 % of control and the T/C (dose: 3.0 mg/kg/injection, schedule: Q01DX015 (ip), vehicle: carboxymethylcellulose (CMC)) was 129 % of control. The T/C (dose: 3.3 mg/kg/injection, schedule: Q01DX007 (ip), vehicle: carboxymethylcellulose (CMC)) was 129 % of control, the T/C (dose: 3.5 mg/kg/injection, schedule: Q01DX015 (ip), vehicle: saline, evaluated on day 46) was 126 % of control and the T/C (dose: 3.5 mg/kg/injection, schedule: Q01DX015 (ip), vehicle: saline, run until all animals had died) was 129 % of control. For the same compound, the T/C (dose: 4.0 mg/kg/injection, schedule: Q01DX009 (ip), vehicle: Klucel (hydroxypropylcellulose) (HPC)) was 129 % of control, the T/C (dose: 4.0 mg/kg/injection, schedule: Q01DX009 (ip), vehicle: saline, evaluated on day 39) was 143 % of control and the T/C (dose: 4.0 mg/kg/injection, schedule: Q01DX009 (ip), vehicle: saline, evaluated on day 40) was 144 % of control. For the same compound, the T/C (dose: 4.0 mg/kg/injection, schedule: Q01DX009 (sc), vehicle: saline) was 125 % of control, the T/C (dose: 4.0 mg/kg/injection, schedule: Q01DX015 (ip), vehicle: carboxymethylcellulose (CMC)) was 131 % of control and the T/C (dose: 5.0 mg/kg/injection, schedule: Q01DX015 (ip), vehicle: carboxymethylcellulose (CMC)) was 132 and 136 % of control. The T/C (dose: 5.0 mg/kg/injection, schedule: Q01DX015 (ip), vehicle: saline, evaluated on day 46) was 133 % of control, the T/C (dose: 5.0 mg/kg/injection, schedule: Q01DX015 (ip), vehicle: saline, run until all animals had died) was 148 % of control and the T/C (dose: 5.0 mg/kg/injection, schedule: Q## X003 (ip), vehicle: saline) was 133 % of control. For the same compound, the T/C (dose: 6.0 mg/kg/injection, schedule: Q01DX001 (ip), vehicle: saline) was 125 % of control, the T/C (dose: 6.0 mg/kg/injection, schedule: Q01DX009 (sc), vehicle: saline) was 131 % of control and the T/C (dose: 6.0 mg/kg/injection, schedule: Q## X003 (ip), vehicle: saline) was 136 % of control. The T/C (dose: 6.0 mg/kg/injection, schedule: Q## X040 (ip), vehicle: saline) was 134 and 143 % of control, the T/C (dose: 6.5 mg/kg/injection, schedule: Q01DX015 (ip), vehicle: saline, evaluated on day 46) was 133 and 137 % of control and the T/C (dose: 6.5 mg/kg/injection, schedule: Q01DX015 (ip), vehicle: saline, run until all animals had died) was 140 % of control. The T/C (dose: 7.5 mg/kg/injection, schedule: Q01DX009 (oral), vehicle: saline) was 127 % of control, the T/C (dose: 7.5 mg/kg/injection, schedule: Q## X003 (ip), vehicle: saline) was 141 % of control and the T/C (dose: 8.0 mg/kg/injection, schedule: Q01DX009 (ip), vehicle: Klucel (hydroxypropylcellulose) (HPC)) was 138 % of control [9 of 10 alive]. For the same compound, the T/C (dose: 8.0 mg/kg/injection, schedule: Q01DX009 (sc), vehicle: saline) was 135 % of control, the T/C (dose: 8.0 mg/kg/injection, schedule: Q01DX015 (ip), vehicle: saline) was 133 % of control and the T/C (dose: 8.0 mg/kg/injection, schedule: Q02DX008 (ip), vehicle: saline) was 137 % of control. The T/C (dose: 8.0 mg/kg/injection, schedule: Q## X040 (ip), vehicle: saline) was 145 % of control, the T/C (dose: 10.0 mg/kg/injection, schedule: Q01DX009 (oral), vehicle: saline) was 134 % of control and the T/C (dose: 10.0 mg/kg/injection, schedule: Q01DX Z (ip), vehicle: carboxymethylcellulose (CMC)) was 137 % of control. The T/C (dose: 10.0 mg/kg/injection, schedule: Q## X003 (ip), vehicle: saline) was 149 % of control, the T/C (dose: 10.0 mg/kg/injection, schedule: Q## X004 (ip), vehicle: saline) was 135 % of control and the T/C (dose: 11.0 mg/kg/injection, schedule: Q01DX001 (ip), vehicle: carboxymethylcellulose (CMC)) was 126 % of control. For the same compound, the T/C (dose: 12.0 mg/kg/injection, schedule: Q01DX001 (ip), vehicle: saline) was 129 % of control, the T/C (dose: 12.0 mg/kg/injection, schedule: Q01DX009 (oral), vehicle: saline) was 147 % of control and the T/C (dose: 12.0 mg/kg/injection, schedule: Q01DX009 (sc), vehicle: saline) was 142 % of control. For the same compound, the T/C (dose: 12.0 mg/kg/injection, schedule: Q## X008 (ip), vehicle: saline) was 129 % of control, the T/C (dose: 12.0 mg/kg/injection, schedule: Q## X040 (ip), vehicle: saline) was 148 % of control and the T/C (dose: 13.0 mg/kg/injection, schedule: Q01DX001 (ip), vehicle: carboxymethylcellulose (CMC)) was 139 % of control. For the same compound, the T/C (dose: 15.0 mg/kg/injection, schedule: Q01DX001 (ip), vehicle: saline, evaluated on day 30) was 131 % of control, the T/C (dose: 15.0 mg/kg/injection, schedule: Q01DX001 (ip), vehicle: saline, evaluated on day 46) was 125 % of control and the T/C (dose: 15.0 mg/kg/injection, schedule: Q01DX009 (oral), vehicle: saline) was 144 % of control. For the same compound, the T/C (dose: 16.0 mg/kg/injection, schedule: Q01DX009 (ip), vehicle: Klucel (hydroxypropylcellulose) (HPC)) was 128 % of control, the T/C (dose: 16.0 mg/kg/injection, schedule: Q## X008 (ip), vehicle: saline) was 127 % of control and the T/C (dose: 16.0 mg/kg/injection, schedule: Q## X024 (ip), vehicle: saline) was 131 % of control. For the same compound, the T/C (dose: 16.0 mg/kg/injection, schedule: Q## X032 (ip), vehicle: saline) was 126 and 136 % of control, the T/C (dose: 17.0 mg/kg/injection, schedule: Q01DX001 (ip), vehicle: carboxymethylcellulose (CMC)) was 131 % of control and the T/C (dose: 18.0 mg/kg/injection, schedule: Q01DX009 (oral), vehicle: saline) was 140 % of control. The T/C (dose: 20.0 mg/kg/injection, schedule: Q01DX001 (ip), vehicle: saline, evaluated on day 39) was 132 % of control, the T/C (dose: 20.0 mg/kg/injection, schedule: Q01DX001 (ip), vehicle: saline, evaluated on day 40) was 135 % of control and the T/C (dose: 20.0 mg/kg/injection, schedule: Q01DX001 (ip), vehicle: saline, evaluated on day 46) was 140 % of control. The T/C (dose: 20.0 mg/kg/injection, schedule: Q01DX Z (ip), vehicle: carboxymethylcellulose (CMC)) was 130 and 145 % of control, the T/C (dose: 20.0 mg/kg/injection, schedule: Q## X032 (ip), vehicle: saline) was 126 % of control and the T/C (dose: 24.0 mg/kg/injection, schedule: Q01DX009 (oral), vehicle: saline) was 130 % of control. For the same compound, the T/C (dose: 24.0 mg/kg/injection, schedule: Q02DX008 (ip), vehicle: saline) was 134 % of control, the T/C (dose: 24.0 mg/kg/injection, schedule: Q## X008 (ip), vehicle: saline) was 136 % of control and the T/C (dose: 24.0 mg/kg/injection, schedule: Q## X032 (ip), vehicle: saline) was 129 [9 of 10 alive] and 133 % of control. The T/C (dose: 24.0 mg/kg/injection, schedule: Q## X040 (ip), vehicle: saline) was 125 % of control, the T/C (dose: 25.0 mg/kg/injection, schedule: Q01DX001 (ip), vehicle: saline, evaluated on day 30) was 139 and 143 % of control and the T/C (dose: 25.0 mg/kg/injection, schedule: Q01DX001 (ip), vehicle: saline, evaluated on day 46) was 142 % of control. The survivor count (dose: 30.0 mg/kg/injection, schedule: Q01DX Z (ip), vehicle: carboxymethylcellulose (CMC)) was 6 of 6, the survivor count (dose: 32.0 mg/kg/injection, schedule: Q01DX009 (ip), vehicle: Klucel (hydroxypropylcellulose) (HPC)) was 10 of 10 and the T/C (dose: 32.0 mg/kg/injection, schedule: Q## X008 (ip), vehicle: saline) was 126 % of control. For the same compound, the T/C (dose: 32.0 mg/kg/injection, schedule: Q## X024 (ip), vehicle: saline) was 144 % of control, the T/C (dose: 32.5 mg/kg/injection, schedule: Q01DX001 (ip), vehicle: saline) was 125 % of control and the T/C (dose: 40.0 mg/kg/injection, schedule: Q01DX001 (ip), vehicle: saline, evaluated on day 30) was 125 and 148 % of control. The T/C (dose: 40.0 mg/kg/injection, schedule: Q01DX001 (ip), vehicle: saline, evaluated on day 39) was 164 % of control, the T/C (dose: 40.0 mg/kg/injection, schedule: Q01DX001 (ip), vehicle: saline, evaluated on day 40) was 154 % of control and the T/C (dose: 40.0 mg/kg/injection, schedule: Q01DX001 (ip), vehicle: saline, evaluated on day 46) was 156 and 204 % of control. The T/C (dose: 40.0 mg/kg/injection, schedule: Q01DX001 (ip), vehicle: saline, run until all animals had died) was 165 % of control, the T/C (dose: 40.0 mg/kg/injection, schedule: Q01DX001 (sc), vehicle: saline) was 128 % of control and the T/C (dose: 40.0 mg/kg/injection, schedule: Q## X032 (ip), vehicle: saline) was 145 % of control. The T/C (dose: 50.0 mg/kg/injection, schedule: Q01DX001 (ip), vehicle: saline, evaluated on day 30) was 87 and 110 % of control, the T/C (dose: 50.0 mg/kg/injection, schedule: Q01DX001 (ip), vehicle: saline, evaluated on day 46) was 134 % of control and the T/C (dose: 50.0 mg/kg/injection, schedule: Q01DX001 (ip), vehicle: saline, run until all animals had died) was 154 and 168 % of control. The T/C (dose: 60.0 mg/kg/injection, schedule: Q01DX001 (ip), vehicle: saline, evaluated on day 39) was 146 % of control, the T/C (dose: 60.0 mg/kg/injection, schedule: Q01DX001 (ip), vehicle: saline, evaluated on day 40) was 129 % of control and the T/C (dose: 60.0 mg/kg/injection, schedule: Q01DX001 (ip), vehicle: saline, evaluated on day 46) was 124 % of control. For the same compound, the T/C (dose: 60.0 mg/kg/injection, schedule: Q01DX001 (ip), vehicle: saline, run until all animals had died) was 132 % of control, the T/C (dose: 60.0 mg/kg/injection, schedule: Q01DX001 (sc), vehicle: saline) was 130 % of control and the survivor count (dose: 60.0 mg/kg/injection, schedule: Q## X003 (ip), vehicle: saline) was 9 of 10. For the same compound, the T/C (dose: 64.0 mg/kg/injection, schedule: Q## X016 (ip), vehicle: saline) was 131 % of control, the T/C (dose: 90.0 mg/kg/injection, schedule: Q01DX001 (ip), vehicle: saline, evaluated on day 39) was 90 % of control and the T/C (dose: 90.0 mg/kg/injection, schedule: Q01DX001 (ip), vehicle: saline, evaluated on day 40) was 114 % of control [9 of 10 alive]. The T/C (dose: 90.0 mg/kg/injection, schedule: Q01DX001 (ip), vehicle: saline, evaluated on day 46) was 108 % of control [9 of 10 alive], the survivor count (dose: 90.0 mg/kg/injection, schedule: Q01DX001 (ip), vehicle: saline) was 4 of 6 and the T/C (dose: 90.0 mg/kg/injection, schedule: Q01DX001 (oral), vehicle: saline) was 140 % of control. For the same compound, the T/C (dose: 135.0 mg/kg/injection, schedule: Q01DX001 (oral), vehicle: saline) was 137 % of control, the survivor count (dose: 180.0 mg/kg/injection, schedule: Q01DX001 (ip), vehicle: saline) was 5 of 10 and 5 of 6 and the survivor count (dose: 200.0 mg/kg/injection, schedule: Q01DX001 (ip), vehicle: saline) was 6 of 6. The survivor count (dose: 270.0 mg/kg/injection, schedule: Q01DX001 (oral), vehicle: saline) was 10 of 10 and the survivor count (dose: 400.0 mg/kg/injection, schedule: Q01DX001 (ip), vehicle: saline) was 0 of 6.
